Earlier results as cited in US20220354783A1, “INJECTABLE PROLONGED-ACTION COMPOSITIONS FOR USE IN THE TREATMENT OF NAIL DISEASE AND/OR FOR PROMOTING NAIL GROWTH” (EDIX-O SARL, priority 2018, published 2022).
For at least one compound, name, drawing or mass did not settle the structure.

Test system: nail diseases
Settings: 200 mg per day for 48 weeks, systemic

CCC(C)n1ncn(-c2ccc(N3CCN(c4ccc(OCC5COC(Cn6cncn6)(c6ccc(Cl)cc6Cl)O5)cc4)CC3)cc2)c1=O (stereo not shown) [itraconazole]
patients who are fully treated: ≤ 15%
